This experiment has as its target T1, dGars::EGFP (Drosophila glycyl-tRNA synthetase with a C-terminal 2xTY1-EGFP-3xFLAG tag) (Drosophila) (UniProt Q9VUK8).
T1 sequence: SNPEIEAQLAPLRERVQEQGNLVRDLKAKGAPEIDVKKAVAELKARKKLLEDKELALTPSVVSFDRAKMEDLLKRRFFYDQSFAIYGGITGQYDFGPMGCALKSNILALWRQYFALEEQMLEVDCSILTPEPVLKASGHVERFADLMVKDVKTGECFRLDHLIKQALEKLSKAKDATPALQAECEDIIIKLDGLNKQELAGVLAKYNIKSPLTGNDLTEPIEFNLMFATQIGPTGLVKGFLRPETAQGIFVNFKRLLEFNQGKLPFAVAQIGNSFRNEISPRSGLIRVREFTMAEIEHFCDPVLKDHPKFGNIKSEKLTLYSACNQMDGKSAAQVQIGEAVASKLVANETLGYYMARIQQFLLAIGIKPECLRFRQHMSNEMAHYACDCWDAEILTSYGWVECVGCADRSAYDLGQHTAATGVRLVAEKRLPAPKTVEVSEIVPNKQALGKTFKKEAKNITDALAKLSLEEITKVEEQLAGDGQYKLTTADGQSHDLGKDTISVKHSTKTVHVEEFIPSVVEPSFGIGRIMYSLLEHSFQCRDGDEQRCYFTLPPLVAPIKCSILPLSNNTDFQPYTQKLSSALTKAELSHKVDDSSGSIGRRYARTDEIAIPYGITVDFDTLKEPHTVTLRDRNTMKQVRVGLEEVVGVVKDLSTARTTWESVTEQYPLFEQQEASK
Description: co-IP; immunoprecipitation of dGars::EGFP with GFP-Trap (Chromotek gtm-20) from 40 CNSs of dGars::EGFP BAC transgenic third instar larvae expressing WT or mutant human GARS in neurons (nsyb-GAL4).

These are yes or no findings as the source states them, for the method shown. In cells and extracts the contact can be indirect. Some entries that bind do so weakly or less than the wild type. Where a sequence is shown, tags or fusion partners need not be part of it.

B1: human glycyl-tRNA synthetase, wild type (GARS_WT) (enzyme, UniProt P41250 37-739)
chain: SAASCPPISLPAAASRSSMDGAGAEEVLAPLRLAVRQQGDLVRKLKEDKAPQVDVDKAVAELKARKRVLEAKELALQPKDDIVDRAKMEDTLKRRFFYDQAFAIYGGVSGLYDFGPVGCALKNNIIQTWRQHFIQEEQILEIDCTMLTPEPVLKTSGHVDKFADFMVKDVKNGECFRADHLLKAHLQKLMSDKKCSVEKKSEMESVLAQLDNYGQQELADLFVNYNVKSPITGNDLSPPVSFNLMFKTFIGPGGNMPGYLRPETAQGIFLNFKRLLEFNQGKLPFAAAQIGNSFRNEISPRSGLIRVREFTMAEIEHFVDPSEKDHPKFQNVADLHLYLYSAKAQVSGQSARKMRLGDAVEQGVINNTVLGYFIGRIYLYLTKVGISPDKLRFRQHMENEMAHYACDCWDAESKTSYGWIEIVGCADRSCYDLSCHARATKVPLVAEKPLKEPKTVNVVQFEPSKGAIGKAYKKDAKLVMEYLAICDECYITEMEMLLNEKGEFTIETEGKTFQLTKDMINVKRFQKTLYVEEVVPNVIEPSFGLGRIMYTVFEHTFHVREGDEQRTFFSFPAVVAPFKCSVLPLSQNQEFMPFVKELSEALTRHGVSHKVDDSSGSIGRRYARTDEIGVAFGVTIDFDTVNKTPHTATLRDRDSMRQIRAEISELPSIVQDLANGNITWADVEARYPLFEGQETGKKETIEE
In the case of B1, the binding entry was “binds”.

(Values after PMC4506996.)
